Results published in the supplement of paper PMC10849652.
The other results are listed elsewhere or left out.

The chains behind the UniProt entries cited, without tags or fusion partners. Where a name states a change or a piece, a line headed by the entry shows the natural chain unless it says otherwise.
UniProt Q8ND24: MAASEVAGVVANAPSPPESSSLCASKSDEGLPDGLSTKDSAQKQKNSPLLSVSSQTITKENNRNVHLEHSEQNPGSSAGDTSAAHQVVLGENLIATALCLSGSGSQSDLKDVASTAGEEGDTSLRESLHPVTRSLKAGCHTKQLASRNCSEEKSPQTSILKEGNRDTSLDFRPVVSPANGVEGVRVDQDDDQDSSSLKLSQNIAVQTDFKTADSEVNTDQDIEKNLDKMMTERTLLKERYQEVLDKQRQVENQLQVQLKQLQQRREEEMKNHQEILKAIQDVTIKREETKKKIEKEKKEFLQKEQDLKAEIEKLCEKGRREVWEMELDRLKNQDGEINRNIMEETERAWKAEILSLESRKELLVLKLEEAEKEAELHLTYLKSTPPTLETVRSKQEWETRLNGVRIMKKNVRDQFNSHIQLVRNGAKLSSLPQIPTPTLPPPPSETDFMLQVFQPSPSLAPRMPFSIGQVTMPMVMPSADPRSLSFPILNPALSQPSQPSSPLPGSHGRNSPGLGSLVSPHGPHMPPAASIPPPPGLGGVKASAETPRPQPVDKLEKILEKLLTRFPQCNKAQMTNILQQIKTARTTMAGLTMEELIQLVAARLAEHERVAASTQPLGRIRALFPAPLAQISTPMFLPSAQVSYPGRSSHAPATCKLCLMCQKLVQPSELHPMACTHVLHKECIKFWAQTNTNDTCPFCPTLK
UniProt Q9BVS4: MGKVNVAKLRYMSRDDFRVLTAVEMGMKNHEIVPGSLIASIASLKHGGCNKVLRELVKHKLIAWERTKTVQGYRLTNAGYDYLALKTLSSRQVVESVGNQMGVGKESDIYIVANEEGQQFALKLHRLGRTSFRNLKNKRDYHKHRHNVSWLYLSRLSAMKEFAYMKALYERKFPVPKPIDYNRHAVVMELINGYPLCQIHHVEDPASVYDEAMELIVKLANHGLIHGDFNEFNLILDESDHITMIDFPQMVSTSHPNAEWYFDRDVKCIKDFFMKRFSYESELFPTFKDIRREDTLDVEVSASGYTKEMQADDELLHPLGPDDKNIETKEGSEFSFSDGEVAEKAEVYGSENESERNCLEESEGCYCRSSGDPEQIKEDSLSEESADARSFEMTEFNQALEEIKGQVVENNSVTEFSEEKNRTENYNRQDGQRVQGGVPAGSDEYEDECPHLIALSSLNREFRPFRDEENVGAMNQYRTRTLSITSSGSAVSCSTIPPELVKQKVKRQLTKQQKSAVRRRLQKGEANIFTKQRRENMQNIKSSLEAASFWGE
UniProt Q9Y508: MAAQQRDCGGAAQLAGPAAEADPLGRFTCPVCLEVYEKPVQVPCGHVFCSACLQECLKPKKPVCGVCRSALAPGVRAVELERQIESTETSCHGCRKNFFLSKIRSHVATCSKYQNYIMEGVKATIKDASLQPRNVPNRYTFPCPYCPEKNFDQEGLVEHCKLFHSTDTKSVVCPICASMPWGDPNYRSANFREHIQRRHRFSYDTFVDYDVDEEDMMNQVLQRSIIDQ
UniProt P46063: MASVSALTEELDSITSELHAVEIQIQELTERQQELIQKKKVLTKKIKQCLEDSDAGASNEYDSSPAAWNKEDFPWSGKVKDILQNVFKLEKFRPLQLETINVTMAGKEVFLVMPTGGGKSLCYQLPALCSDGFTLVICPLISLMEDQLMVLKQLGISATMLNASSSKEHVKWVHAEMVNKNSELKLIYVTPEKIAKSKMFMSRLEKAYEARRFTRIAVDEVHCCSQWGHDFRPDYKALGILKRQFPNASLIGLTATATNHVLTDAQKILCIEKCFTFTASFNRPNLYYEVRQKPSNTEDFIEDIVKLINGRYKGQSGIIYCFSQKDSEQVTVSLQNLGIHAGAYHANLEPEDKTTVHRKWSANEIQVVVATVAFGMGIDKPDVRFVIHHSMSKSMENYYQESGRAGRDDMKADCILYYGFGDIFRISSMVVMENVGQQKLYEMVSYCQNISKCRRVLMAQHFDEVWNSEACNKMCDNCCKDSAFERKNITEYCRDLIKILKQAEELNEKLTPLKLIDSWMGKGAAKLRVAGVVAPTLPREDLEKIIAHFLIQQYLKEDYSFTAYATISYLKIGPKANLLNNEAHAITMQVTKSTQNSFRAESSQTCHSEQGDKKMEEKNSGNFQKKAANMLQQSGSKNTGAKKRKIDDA
UniProt O75792: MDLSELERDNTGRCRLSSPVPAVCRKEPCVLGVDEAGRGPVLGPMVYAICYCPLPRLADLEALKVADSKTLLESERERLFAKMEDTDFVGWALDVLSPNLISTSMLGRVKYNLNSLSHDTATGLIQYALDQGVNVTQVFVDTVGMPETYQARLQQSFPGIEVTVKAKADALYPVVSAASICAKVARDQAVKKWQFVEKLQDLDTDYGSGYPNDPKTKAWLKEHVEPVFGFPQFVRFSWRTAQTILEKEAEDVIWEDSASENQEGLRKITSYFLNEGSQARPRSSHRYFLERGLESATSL
UniProt O00584, whole entry, looked up: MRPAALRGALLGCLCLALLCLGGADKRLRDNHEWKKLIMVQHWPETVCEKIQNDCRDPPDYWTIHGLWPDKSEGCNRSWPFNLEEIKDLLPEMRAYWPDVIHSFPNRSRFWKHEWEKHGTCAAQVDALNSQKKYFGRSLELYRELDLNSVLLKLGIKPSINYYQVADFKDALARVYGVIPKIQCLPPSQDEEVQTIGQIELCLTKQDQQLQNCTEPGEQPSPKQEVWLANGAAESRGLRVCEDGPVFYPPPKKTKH
UniProt Q9BRS2: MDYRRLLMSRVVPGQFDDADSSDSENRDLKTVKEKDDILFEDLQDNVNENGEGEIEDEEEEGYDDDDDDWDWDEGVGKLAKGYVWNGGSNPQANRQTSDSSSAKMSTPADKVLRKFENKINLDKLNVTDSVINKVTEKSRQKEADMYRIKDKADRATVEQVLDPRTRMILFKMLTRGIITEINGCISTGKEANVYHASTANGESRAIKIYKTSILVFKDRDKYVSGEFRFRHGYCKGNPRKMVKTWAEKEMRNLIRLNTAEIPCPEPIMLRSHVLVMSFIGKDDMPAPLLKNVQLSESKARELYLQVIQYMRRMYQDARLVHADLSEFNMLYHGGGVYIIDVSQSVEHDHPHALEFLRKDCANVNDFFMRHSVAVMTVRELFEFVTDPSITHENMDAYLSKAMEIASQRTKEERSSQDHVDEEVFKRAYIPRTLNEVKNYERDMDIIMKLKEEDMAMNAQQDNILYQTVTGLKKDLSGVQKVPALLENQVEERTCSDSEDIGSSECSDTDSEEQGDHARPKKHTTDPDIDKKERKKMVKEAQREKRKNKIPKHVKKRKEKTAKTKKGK
UniProt P52758: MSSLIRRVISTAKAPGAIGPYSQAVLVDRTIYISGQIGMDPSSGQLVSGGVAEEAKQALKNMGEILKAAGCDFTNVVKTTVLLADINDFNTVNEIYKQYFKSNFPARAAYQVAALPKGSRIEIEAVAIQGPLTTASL
UniProt Q6NUK4: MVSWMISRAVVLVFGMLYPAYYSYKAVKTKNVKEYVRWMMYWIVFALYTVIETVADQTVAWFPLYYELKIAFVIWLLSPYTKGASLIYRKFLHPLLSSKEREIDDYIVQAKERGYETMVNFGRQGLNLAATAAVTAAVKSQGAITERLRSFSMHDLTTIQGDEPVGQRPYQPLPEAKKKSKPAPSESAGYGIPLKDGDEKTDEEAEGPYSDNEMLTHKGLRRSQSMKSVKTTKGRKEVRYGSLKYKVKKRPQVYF
UniProt Q9NPQ8: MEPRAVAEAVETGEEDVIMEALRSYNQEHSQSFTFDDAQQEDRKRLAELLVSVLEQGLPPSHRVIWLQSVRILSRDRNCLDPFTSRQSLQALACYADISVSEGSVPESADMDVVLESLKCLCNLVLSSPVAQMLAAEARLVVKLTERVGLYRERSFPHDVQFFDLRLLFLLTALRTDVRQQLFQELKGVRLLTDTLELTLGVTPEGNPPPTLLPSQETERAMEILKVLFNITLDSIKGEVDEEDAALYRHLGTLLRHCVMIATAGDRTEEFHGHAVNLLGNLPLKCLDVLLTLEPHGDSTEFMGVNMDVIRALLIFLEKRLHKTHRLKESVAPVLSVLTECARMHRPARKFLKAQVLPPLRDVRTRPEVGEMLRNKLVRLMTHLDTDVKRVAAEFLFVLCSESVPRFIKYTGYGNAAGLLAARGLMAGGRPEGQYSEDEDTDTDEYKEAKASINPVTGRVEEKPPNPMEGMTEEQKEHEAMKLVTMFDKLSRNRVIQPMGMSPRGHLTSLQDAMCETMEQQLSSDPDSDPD
UniProt Q8TAC1: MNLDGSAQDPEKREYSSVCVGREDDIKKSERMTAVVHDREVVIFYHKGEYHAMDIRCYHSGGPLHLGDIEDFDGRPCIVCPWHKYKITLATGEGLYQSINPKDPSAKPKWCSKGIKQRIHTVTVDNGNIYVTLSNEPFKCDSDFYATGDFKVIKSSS
UniProt Q8TEB9: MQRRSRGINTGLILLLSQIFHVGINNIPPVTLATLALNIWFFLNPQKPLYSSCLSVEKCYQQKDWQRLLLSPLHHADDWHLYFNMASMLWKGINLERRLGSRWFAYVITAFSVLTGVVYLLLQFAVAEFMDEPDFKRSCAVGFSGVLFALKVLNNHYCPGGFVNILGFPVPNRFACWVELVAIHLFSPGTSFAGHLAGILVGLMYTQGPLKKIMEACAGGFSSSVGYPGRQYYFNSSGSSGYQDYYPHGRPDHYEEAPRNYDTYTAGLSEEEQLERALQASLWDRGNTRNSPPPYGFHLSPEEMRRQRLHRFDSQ
UniProt P62745, whole entry, looked up: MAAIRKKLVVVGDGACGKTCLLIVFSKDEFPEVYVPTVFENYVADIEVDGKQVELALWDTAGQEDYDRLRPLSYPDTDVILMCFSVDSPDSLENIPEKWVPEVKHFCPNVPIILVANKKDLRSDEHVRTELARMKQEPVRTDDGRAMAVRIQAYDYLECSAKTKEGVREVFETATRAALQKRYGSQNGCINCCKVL
UniProt Q9Y256: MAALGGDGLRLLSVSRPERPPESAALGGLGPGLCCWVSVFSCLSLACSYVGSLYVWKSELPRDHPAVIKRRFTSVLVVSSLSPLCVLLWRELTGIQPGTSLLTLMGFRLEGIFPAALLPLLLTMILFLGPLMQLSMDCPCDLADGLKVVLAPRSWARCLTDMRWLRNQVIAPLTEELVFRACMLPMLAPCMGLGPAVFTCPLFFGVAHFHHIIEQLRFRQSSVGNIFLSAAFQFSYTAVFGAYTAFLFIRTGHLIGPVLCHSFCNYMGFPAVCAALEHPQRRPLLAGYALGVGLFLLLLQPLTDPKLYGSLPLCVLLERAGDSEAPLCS
UniProt Q9BQY4: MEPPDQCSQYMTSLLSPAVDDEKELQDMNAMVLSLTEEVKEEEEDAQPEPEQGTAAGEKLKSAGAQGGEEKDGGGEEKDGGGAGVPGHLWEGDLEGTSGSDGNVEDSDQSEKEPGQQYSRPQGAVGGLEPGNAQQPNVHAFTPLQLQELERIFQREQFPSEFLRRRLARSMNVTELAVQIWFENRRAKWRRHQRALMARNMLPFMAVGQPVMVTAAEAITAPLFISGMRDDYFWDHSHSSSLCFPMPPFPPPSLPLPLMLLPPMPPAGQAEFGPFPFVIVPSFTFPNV
UniProt Q06330: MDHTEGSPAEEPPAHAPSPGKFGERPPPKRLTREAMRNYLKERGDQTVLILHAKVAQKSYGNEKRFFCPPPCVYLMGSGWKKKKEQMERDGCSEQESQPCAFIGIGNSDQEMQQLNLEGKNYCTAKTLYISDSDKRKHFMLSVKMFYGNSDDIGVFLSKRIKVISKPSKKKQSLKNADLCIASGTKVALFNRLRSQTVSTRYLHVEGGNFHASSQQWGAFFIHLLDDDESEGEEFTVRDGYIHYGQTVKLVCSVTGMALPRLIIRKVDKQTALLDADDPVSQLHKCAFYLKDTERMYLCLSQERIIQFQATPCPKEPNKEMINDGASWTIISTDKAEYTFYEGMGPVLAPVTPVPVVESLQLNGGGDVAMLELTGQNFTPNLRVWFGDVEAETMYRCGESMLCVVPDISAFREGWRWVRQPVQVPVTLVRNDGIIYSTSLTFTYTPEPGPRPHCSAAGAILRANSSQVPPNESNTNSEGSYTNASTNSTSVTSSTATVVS
UniProt Q969G6: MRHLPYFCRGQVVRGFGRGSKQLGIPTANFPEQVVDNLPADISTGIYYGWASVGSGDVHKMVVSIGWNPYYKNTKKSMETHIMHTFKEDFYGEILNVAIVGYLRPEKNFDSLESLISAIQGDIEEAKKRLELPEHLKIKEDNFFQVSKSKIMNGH
UniProt P61586, whole entry, looked up: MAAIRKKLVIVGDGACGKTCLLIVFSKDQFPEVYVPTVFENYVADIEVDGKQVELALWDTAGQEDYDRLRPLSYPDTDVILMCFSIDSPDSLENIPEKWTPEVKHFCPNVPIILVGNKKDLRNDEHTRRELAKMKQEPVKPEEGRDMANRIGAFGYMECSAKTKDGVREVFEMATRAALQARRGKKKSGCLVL

Tests used:
Experiment in all cases: log2 fold change, soluble protein after heating vs DMSO (PISA); higher = thermal stabilisation; K562 cells, 10 uM, 30 min; active = over 0.2 and 3.5 SD of the protein, either way, in both replicates (recomputed)
[1] = compound: Cc1ccc(NC(=O)c2ccc(CN3CC[C@H](N(C)C)C3)c(C(F)(F)F)c2)cc1Nc1nccc(-c2cncnc2)n1 [bafetinib]
How it was run: (§1)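 Aliquots of K562 cells (2×10^6 cells/mL) treated with 10 μM compound for 30 min were heated for 3 min over 48°C-58°C. After pooling and extraction in PBS with 0.5% NP-40 at 4°C, soluble protein from a 21,000xg, 90 min spin was quantified by TMTpro 16plex LC-MS/MS with channel sums equalised. Thermal stability is expressed against control samples, from duplicates, as a log2 fold change.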

[2] = compound: Cc1cccc(CC(=O)N2CCc3c2ccc(-c2cn(C)c4ncnc(N)c24)c3F)n1
How it was run: as §1

[3] = compound: Cc1cn(-c2cc(NC(=O)c3ccc(C)c(Nc4nccc(-c5cccnc5)n4)c3)cc(C(F)(F)F)c2)cn1 [nilotinib]
How it was run: as §1

[4] = compound: Cc1nc(Nc2n[nH]c3c2CN(C(=O)N[C@H](CN(C)C)c2ccccc2)C3(C)C)c2sccc2n1
How it was run: as §1

[5] = compound: Cc1nc(Nc2ncc(C(=O)Nc3c(C)cccc3Cl)s2)cc(N2CCN(CCO)CC2)n1 [dasatinib]
How it was run: as §1

[6] = compound: Cc1ncc(-c2ccnc(Nc3ccc(S(C)(=O)=O)cc3)n2)n1C(C)C
How it was run: as §1

[7] = compound: Cn1cc(-c2ccc3c(c2)CCN3C(=O)Cc2cccc(C(F)(F)F)c2)c2c(N)ncnc21
How it was run: as §1

[8] = compound: Cn1cc(-c2ccc3nnc(C(F)(F)c4ccc5ncccc5c4)n3n2)cn1
How it was run: as §1

[9] = compound: Cn1cncc1[C@@](N)(c1ccc(Cl)cc1)c1ccc2c(c1)c(-c1cccc(Cl)c1)cc(=O)n2C [tipifarnib]
How it was run: as §1

[10] = compound: FC(F)(F)c1ccc(/C=C/c2nc(COc3ccc(CCCCn4ccnn4)cc3)co2)cc1 [mubritinib]
How it was run: as §1

Measured: log2 fold change

REPS1 (UniProt Q96D71)
inactive: [1] 0.059 | [2] -0.066 | [3] 0.096 | [4] -0.055 | [5] -0.019 | [6] -0.014 | [7] -0.197 | [8] -0.076 | [9] 0.099

RMND1 (UniProt Q9NWS8)
inactive: [1] -0.041 | [2] -0.017 | [3] -0.022 | [4] 0.002 | [5] -0.046 | [6] -0.091 | [7] 0.064 | [8] 0.037 | [9] -0.067 | [10] 0.002

RNF214 (UniProt Q8ND24)
inactive: [1] -0.019 | [2] 0.055 | [3] -0.061 | [4] -0.022 | [5] -0.12 | [6] 0.04 | [7] -0.051 | [8] -0.011 | [9] -0.056 | [10] 0.041

RNF167 (UniProt Q9H6Y7)
inactive: [1] -0.049 | [2] -0.012 | [3] 0.049 | [4] -0.014 | [5] 0.039 | [6] 0.025 | [7] -0.068 | [8] 0.032 | [9] 0.008 | [10] 0.001

RIOK2 (UniProt Q9BVS4)
inactive: [1] 0.27 | [2] 0.003 | [3] 0.094 | [4] 0.202 | [5] 0.013 | [6] 0.231 | [7] -0.041 | [8] -0.067 | [9] -0.003 | [10] 0.014

RNF114 (UniProt Q9Y508)
inactive: [1] -0.043 | [2] -0.008 | [3] 0.022 | [4] -0.008 | [5] -0.039 | [6] -0.02 | [7] 0.002 | [8] -0.031 | [9] -0.082 | [10] 0.002

2 neighbouring records from above, quoted:
RIOK2 (UniProt Q9BVS4)
inactive: [1] 0.27 | [2] 0.003 | [3] 0.094 | [4] 0.202 | [5] 0.013 | [6] 0.231 | [7] -0.041 | [8] -0.067 | [9] -0.003 | [10] 0.014

RNF114 (UniProt Q9Y508)
inactive: [1] -0.043 | [2] -0.008 | [3] 0.022 | [4] -0.008 | [5] -0.039 | [6] -0.02 | [7] 0.002 | [8] -0.031 | [9] -0.082 | [10] 0.002

The list goes on:

RECQL (UniProt P46063)
inactive: [1] 0.005 | [2] -0.019 | [3] 0.025 | [4] 0.006 | [5] -0.043 | [6] -0.033 | [7] 0.055 | [8] -0.006 | [9] -0.034 | [10] 0.017

RFT1 (UniProt Q96AA3)
inactive: [1] -0.07 | [2] -0.037 | [3] -0.038 | [4] 0.012 | [5] 0.048 | [6] -0.026 | [7] 0.042 | [8] 0.044 | [9] 0.09 | [10] 0.077

RNASEH2A (UniProt O75792)
active: [2] -0.303
inactive: [1] -0.111 | [3] -0.025 | [4] 0.024 | [5] -0.159 | [6] -0.047 | [7] 0.056 | [8] 0.038 | [9] -0.003 | [10] 0.059

RNASET2 (UniProt O00584)
active: [1] -0.261
inactive: [2] -0.006 | [3] 0.016 | [4] -0.002 | [5] -0.031 | [6] -0.034 | [7] -0.065 | [8] 0.027 | [9] 0.067 | [10] 0.021

RER1 (UniProt O15258)
inactive: [1] -0.064 | [2] -0.155 | [3] 0.005 | [4] 0.003 | [5] 0.039 | [6] 0.006 | [7] 0.001 | [8] 0.045 | [9] 0.086 | [10] -0.033

RIOK1 (UniProt Q9BRS2)
inactive: [1] -0.058 | [2] -0.047 | [3] 0.022 | [4] 0.044 | [5] 0.063 | [6] 0.021 | [7] -0.021 | [8] 0 | [9] 0.015 | [10] 0.011

RENBP (UniProt P51606)
inactive: [1] 0.005 | [2] -0.013 | [3] -0.036 | [4] -0.057 | [5] 0.028 | [6] 0.036 | [7] 0.069 | [8] 0.01 | [9] 0.036 | [10] 0.031

RIDA (UniProt P52758)
inactive: [1] -0.063 | [2] -0.026 | [3] 0.059 | [4] 0 | [5] 0.062 | [6] -0.038 | [7] 0.003 | [8] 0.062 | [9] -0.019 | [10] -0.024

REEP3 (UniProt Q6NUK4)
inactive: [1] -0.044 | [2] 0.062 | [3] 0.01 | [4] -0.165 | [5] -0.107 | [6] -0.008 | [7] 0.01 | [8] 0 | [9] 0.023 | [10] 0.048

RIC8A isoform 3 (UniProt Q9NPQ8)
inactive: [1] 0.042 | [2] -0.062 | [3] -0.041 | [4] -0.043 | [5] -0.108 | [6] 0.088 | [7] 0.03 | [8] 0.014 | [9] -0.1 | [10] -0.095

RFESD isoform 2 (UniProt Q8TAC1)
inactive: [1] -0.079 | [2] 0.041 | [3] 0.007 | [4] -0.009 | [5] 0.003 | [6] 0.006 | [7] 0.015 | [8] -0.01 | [9] 0.033 | [10] 0.048

RHBDD1 (UniProt Q8TEB9)
inactive: [1] -0.16 | [2] 0.025 | [3] -0.014 | [4] -0.377 | [5] 0.038 | [6] 0.019 | [7] -0.008 | [8] 0.054 | [9] 0.009 | [10] 0.028

RHOB (UniProt P62745)
inactive: [1] 0 | [2] 0.077 | [3] -0.032 | [4] 0.026 | [5] 0.24 | [6] 0.019 | [7] -0.017 | [8] -0.081 | [9] 0.017 | [10] -0.025

RHEB (UniProt Q15382)
inactive: [1] 0.01 | [2] 0.004 | [3] -0.027 | [4] 0.001 | [5] 0.004 | [6] 0.04 | [7] 0.035 | [8] 0.001 | [9] -0.042 | [10] 0.004

RCE1 (UniProt Q9Y256)
inactive: [1] -0.113 | [2] -0.213 | [3] -0.164 | [4] 0.023 | [5] -0.001 | [6] -0.212 | [7] -0.296 | [8] 0.022 | [9] 0.084 | [10] 0.091

RNF181 (UniProt Q9P0P0)
inactive: [1] -0.053 | [2] -0.1 | [3] 0.068 | [4] -0.06 | [5] 0.105 | [6] -0.006 | [7] 0.051 | [8] 0.027 | [9] -0.008 | [10] 0.039

RNF14 (UniProt Q9UBS8)
inactive: [1] -0.033 | [2] 0.05 | [3] -0.002 | [4] -0.07 | [5] -0.136 | [6] -0.048 | [7] -0.017 | [8] 0.033 | [9] -0.05 | [10] 0.017

RHOG (UniProt P84095)
inactive: [1] -0.008 | [2] -0.051 | [3] 0.018 | [4] 0.01 | [5] 0.056 | [6] 0 | [7] 0.06 | [8] -0.039 | [9] 0.013 | [10] 0.009

RHOXF2 (UniProt Q9BQY4)
active: [2] -0.215
inactive: [1] -0.05 | [3] 0.009 | [4] -0.007 | [5] 0.053 | [6] -0.058 | [7] 0.008 | [8] -0.035 | [9] 0.048 | [10] 0.06

RBPJ (UniProt Q06330)
inactive: [1] -0.012 | [2] -0.027 | [3] 0.016 | [4] -0.006 | [5] 0 | [6] -0.008 | [7] -0.018 | [8] 0.025 | [9] 0.005 | [10] 0.008

RNASEH2B (UniProt Q5TBB1)
inactive: [1] 0.042 | [2] -0.039 | [3] -0.045 | [4] 0.042 | [5] -0.317 | [6] -0.05 | [7] 0.177 | [8] 0.119 | [9] -0.116 | [10] 0.081

RBM42 (UniProt Q9BTD8)
inactive: [1] 0.085 | [2] -0.168 | [3] -0.029 | [4] 0.086 | [5] 0.069 | [6] -0.067 | [7] -0.105 | [8] -0.047 | [9] 0.076 | [10] -0.071

RFK (UniProt Q969G6)
inactive: [1] -0.024 | [2] -0.033 | [3] -0.042 | [4] 0.064 | [5] 0.027 | [6] 0.036 | [7] 0.063 | [8] -0.037 | [9] -0.083 | [10] 0.033

RHOA (UniProt P61586)
inactive: [1] -0.149 | [2] -0.051 | [3] 0.154 | [4] 0.001 | [5] 0.001 | [6] 0.014 | [7] 0.04 | [8] 0.012 | [9] 0 | [10] 0.029
